Some of the results follow. Further columns of the screen follow, without active or inactive calls. Most of these compounds were active or inconclusive in the main read-out, so they are no random draw. Potencies come from curve fits of mixed quality, noted in brackets.

A short description of the test: Cell signaling CRE-BLA (Fsk stim). The settings on record: CHO CRE-bla reporter (cAMP response element driving beta-lactamase), forskolin EC10, beta-lactamase ratio; measured here: 460 nm blue channel. The gist of the method:
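Using CellSensor CRE-bla CHO cells in Opti-MEM with 0.5% dialyzed FBS, compounds were titrated with EC10 NKH 477 for 3 h at 37 °C. CCF4 ratio (460/530 nm) gave %Activity; AC50 derived.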
In the case of `COc1ccccc1OCC(=O)Nc1ccc(S(=O)(=O)Nc2nc(C)cc(C)n2)cc1`, the concentration at half-maximal activity (AC50) was 0.794 µM [rising, partial curve]. As for `COc1ccc(CSc2nc(N3CCOCC3)c3c(c2C#N)CC(C)(C)OC3)cc1`, the concentration at half-maximal activity (AC50) is 2 µM [rising, single point]. The figure for `Fc1ccc(C2=Nn3c(nnc3-c3n[nH]c4c3CCC4)SC2)cc1` is 0.398 µM [rising, full curve]. The value for `Cc1nnc(NC2=NCCC2)s1` was 5.01 µM [falling, single point]; that for `OCCNCCCCOc1ccccc1F` was 0.00316 µM [falling, full curve, poor fit]. The value for `Cc1nc2c([nH]c3ccc(Br)cc32)s1` was 25.1 µM [rising, single point]; that for `C[C@@H](C(=O)Nc1ccc2ccccc2c1)[C@H]1C[C@]1(C)[C@H](NC(=O)c1cccnc1)c1ccccc1` was 3.16 µM [falling, partial curve]; that for `CS(=O)(=O)Nc1cccc(C(=O)CC2(O)C(=O)Nc3ccc(Br)cc32)c1` (stereo not drawn) was 25.1 µM [falling, single point]. For `COc1ccc(OC)c(-n2nnnc2SCC(=O)NCc2ccc3c(c2)OCO3)c1`, the concentration at half-maximal activity (AC50) was 15.8 µM [falling, single point]. As for `Cc1ccc(C(=O)CSc2nnc(CNc3ccc(C)cc3C)n2Cc2ccco2)cc1`, the AC50 is 3.98 µM [falling, partial curve]. Take `O=C(Nc1cccc(-c2nc3ccccc3[nH]2)c1)c1ccco1`: the half-maximal activity concentration (AC50) was 2.51 µM [rising, full curve, poor fit]. With `CC(=O)NC12CC3CC(C1)CC(C(=O)OCC(=O)NC(=O)c1cccn1C)(C3)C2`, the AC50 is 5.01 µM [falling, single point]. As to `CCOC(=O)c1cc(CC)sc1NC(=O)COC`, the AC50 is 10 µM [falling, partial curve]. The value for `Cc1cccc(CNc2ccnc(-c3ccc(N(C)C)cc3)n2)c1` was 12.6 µM [rising, partial curve]; that for `CN(C)c1ncc2nc(-c3cccc(C#N)c3)c(=O)n(CCC#N)c2n1` was 20 µM [rising, single point].

Turning to `Cc1cc(C)c(NC(=O)CSc2nnc(-c3ccco3)n2N)c(C)c1`, the concentration at half-maximal activity (AC50) is 10 µM [falling, partial curve]. The figure for `CC(=O)Nc1ccc(NC(=O)c2ccccc2F)cc1` is 0.0631 µM [rising, full curve]; for `CCN1CCN(C(c2cccs2)C(C)NS(=O)(=O)c2ccc(Br)cc2)CC1` (stereo not drawn) it is 31.6 µM [falling, single point]; for `CCOc1ccc(CCNC(=O)C(CC)n2nc(C)n3c(cc4sccc43)c2=O)cc1OCC` (stereo not drawn) it is 5.01 µM [falling, partial curve, poor fit]. The value for `CC(C)Cn1c(-c2cccs2)nc2nc3ccccc3nc21` was 10 µM [rising, partial curve]; that for `Cc1cc(NCc2ccco2)nc2cc(O)ccc12` was 12.6 µM [rising, partial curve]; that for `CCOC(=O)N1CCN(C(=O)c2ccc3nc4ccc(Cl)cc4c(=O)n3c2)CC1` was 1.26 µM [rising, full curve].

`Cc1ccc(S(=O)(=O)N2CCN(C(=O)C3CCCCC3)CC2)cc1`: the half-maximal activity concentration (AC50) was 7.94 µM [falling, partial curve]. The value for `Cc1cc(Nc2ccc(Br)cc2F)n2nc(C)nc2n1` was 10 µM [rising, single point]. The value for `CCN(CC)S(=O)(=O)c1cc(C)c(C)cc1Br` was 0.126 µM [falling, full curve]; that for `COCCn1c(SCc2nnc(-c3ccccc3)o2)nc2sc3c(c2c1=O)CCC3` was 3.16 µM [rising, partial curve]. With `CN1C(=O)c2cccc(NCCCN3C(=O)c4ccccc4C3=O)c2C1=O`, the AC50 was 12.6 µM [rising, single point]. The figure for `Cc1nnc(SCc2nc3ccccc3s2)n1-c1ccccc1` is 15.8 µM [rising, partial curve]; for `CC(C)Nc1nc(NC(C)C)nc(N(C)C#N)n1` it is 12.6 µM [rising, partial curve].

`Cc1ccc(NS(=O)(=O)c2ccc(C)c(C(=O)N3CCN(C)CC3)c2)cc1`: the concentration at half-maximal activity (AC50) was 0.1 µM [falling, partial curve, poor fit]. The value for `Cc1cc2c(cc1C)-c1nnnn1C(C)(C)C2` was 12.6 µM [rising, single point].

Take `O=S1(=O)c2cccc3cccc(c23)N1Cc1nnc(-c2ccccc2Br)o1`: the half-maximal activity concentration (AC50) is 2 µM [rising, full curve]. The figure for `O=C(Cn1c(=O)sc2ccccc21)N1CCOCC1` is 0.00316 µM [falling, full curve, poor fit]; for `CCN(CC)S(=O)(=O)c1cc(C(=O)Nc2ccccn2)ccc1C` it is 3.16 µM [falling, partial curve, poor fit].

For `Cc1cc2c(c(=O)n1CC1CCCO1)C(c1ccco1)C(C#N)=C(N)O2` (stereo not drawn), the AC50 is 3.98 µM [rising, single point]. The value for `CCOC(=O)c1cc(-c2ccc(Cl)s2)nc2c1c(C)nn2C` was 5.01 µM [rising, single point]; that for `CC(=O)c1ccccc1OCCn1nnc(-c2ccc(C)cc2)n1` was 15.8 µM [rising, single point]; that for `O=C(NCCN1CCN(c2ccccc2)CC1)c1cccn2c(=O)c3cc(Cl)ccc3nc12` was 0.00398 µM [rising, full curve, poor fit].

Consider `Cc1cc(C(=O)CSc2nnnn2-c2ccc(O)cc2)c(C)n1Cc1ccc2c(c1)OCO2`, for which the AC50 is 6.31 µM [falling, partial curve]. The figure for `CCOC(=O)CCCCC(=O)c1[nH]c(=O)[nH]c1Cn1ccnc1` is 0.2 µM [falling, single point]; for `COc1ccccc1N1CCN(C(CNS(=O)(=O)c2ccccc2)c2cccnc2)CC1` (stereo not drawn) it is 0.00316 µM [rising, full curve]; for `O=S(=O)(Nc1ccc(N2CCOCC2)nn1)c1ccccc1` it is 5.01 µM [falling, single point]. The figure for `CC(=O)c1ccc(NC(=O)N2CCN(c3cccc(Cl)c3)CC2)cc1` is 12.6 µM [falling, partial curve]. The figure for `CC(=O)OCCNc1cc(N2CCN(C)CC2)c2noc3c2c1C(=O)c1ccccc1-3` is 10 µM [rising, partial curve]; for `COc1cccc(Nc2ncc3nc(-c4ccc(F)cc4)c(=O)n(C[C@H]4CCCO4)c3n2)c1` it is 0.631 µM [rising, partial curve]. Take `CCNc1ncc2nc(-c3ccc(Cl)cc3)c(=O)n(C)c2n1`: the AC50 is 3.16 µM [rising, partial curve].

As to `COC(=O)c1cc(=O)n(Cc2ccc3c(c2)OCO3)c(=Nc2ccccc2)s1`, the AC50 was 2.51 µM [falling, full curve].

In the case of `COc1cc(C(=O)OCC(=O)Nc2c(F)c(F)c(F)c(F)c2F)cc(OC)c1OC`, the AC50 is 10 µM [rising, single point]. As for `CC1(C)N(O)CC(c2cccs2)=[N+]1[O-]`, the half-maximal activity concentration (AC50) was 0.00398 µM [falling, full curve, poor fit]. On to `Cn1c(C(=O)Nc2ccc3c(c2)OCO3)cc2sccc21`, for which the AC50 was 0.794 µM [falling, full curve]. In the case of `CCOC(=O)c1c(C)oc2ccc(OCC(N)=O)cc12`, the AC50 is 12.6 µM [rising, single point]. Regarding `CCOc1ccccc1NS(=O)(=O)c1c(C)noc1C`, the AC50 is 10 µM [falling, partial curve]. Consider `Brc1cccc(-c2nnc(SCc3ccon3)n2-c2ccccc2)c1`, for which the half-maximal activity concentration (AC50) is 7.94 µM [rising, partial curve]. The figure for `Cc1cc(C(F)F)n2ncc(C(=O)NC3CCCCCC3)c2n1` is 25.1 µM [rising, single point]; for `CC1=C(/C=C/C(C)=C/C=C/C(C)=C/C(=O)Nc2ccc(O)cc2)C(C)(C)CCC1` it is 15.8 µM [falling, partial curve]; for `C[C@H](NC(=O)Nc1ccccc1F)C(=O)O` it is 5.01 µM [falling, full curve].

Turning to `COC(=O)c1ccc(OC)c(CSc2nnc(COc3ccc(Cl)cc3)o2)c1`, the AC50 is 3.98 µM [rising, single point]. The value for `CCc1c(C)nc2ncnn2c1N1CCCC(C(=O)NCc2ccc3c(c2)OCO3)C1` (stereo not drawn) was 10 µM [rising, partial curve]. Turning to `O=C(NCCCN1CCOCC1)c1cc(-c2ccc(Br)cc2)on1`, the half-maximal activity concentration (AC50) is 0.501 µM [falling, partial curve].

`O=C(CSc1nnc(-c2cccc(S(=O)(=O)N3CCCCC3)c2)o1)c1ccc[nH]1`: the half-maximal activity concentration (AC50) was 5.01 µM [falling, single point]. The figure for `CNc1nc(-c2ccoc2)nc2ccccc12` is 3.98 µM [rising, full curve]; for `COCCn1c(SCC(=O)Nc2ncc(Cl)c(C)c2Cl)nc2ccccc21` it is 5.01 µM [rising, partial curve].

Take `COc1cccc(/C=N/n2c(SC)nnc2-c2ccccc2)c1O`: the AC50 is 10 µM [rising, partial curve]. The value for `CCCOC(=O)c1ccc(Oc2c(-c3ccc(OCC)cc3O)n[nH]c2C)cc1` was 15.8 µM [falling, single point]; that for `O=S(=O)(c1ccccc1)c1nc(-c2ccco2)oc1NCCCn1ccnc1` was 15.8 µM [rising, partial curve]; that for `CCC(=O)Nc1cccc(NC(=O)c2cc3ccccc3o2)c1` was 25.1 µM [falling, single point]. Consider `Cc1cc(S(=O)(=O)NCCN(C)C)c(C)s1`, for which the AC50 was 10 µM [rising, partial curve]. The value for `CCOC(=O)c1oc2ccccc2c1NC(=O)c1cc(OC)cc(OC)c1` was 12.6 µM [rising, partial curve].

The AC50 is the midpoint of the concentration-response curve, whichever way the signal moves.

The values above are taken from PubChem BioAssay AID662 (National Center for Advancing Translational Sciences (NCATS), 2007).
